From patent publication US20220073581A1
No constants are given. Whether binding was seen depends on the method and setting. Some results given as binding are weak or reduced against the parent protein; the word gives no strength.

Chains of the proteins cited; added tags and fusions are not shown. Residues count along the entry.
UniProt Q00941, residues 30-327: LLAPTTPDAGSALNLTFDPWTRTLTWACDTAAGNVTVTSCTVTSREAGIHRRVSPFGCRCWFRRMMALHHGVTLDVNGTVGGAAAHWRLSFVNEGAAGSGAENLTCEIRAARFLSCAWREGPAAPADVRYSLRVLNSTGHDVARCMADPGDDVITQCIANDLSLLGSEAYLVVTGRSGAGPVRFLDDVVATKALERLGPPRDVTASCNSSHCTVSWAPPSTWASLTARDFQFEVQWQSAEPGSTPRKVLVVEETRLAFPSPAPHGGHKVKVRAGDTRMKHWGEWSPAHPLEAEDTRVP

Legend:
[1] = target: GM-CSF receptor, cognate for the murine GM-CSF constructs (UniProt Q00941); assay: SPR, fusion captured, cognate GM-CSF receptor at 100 nM
[2] = target: GM-CSF receptor, cognate for the murine GM-CSF constructs (UniProt Q00941); assay: SPR (Biacore), fusion captured on anti-human F(ab)2, 100 nM GM-CSF receptor injected

B1: CA645/GM-CSFCH1 (murine) (CA645 Fab with murine GM-CSF at the C-terminus of CH1, for comparison) (Fab, V domains shown)
VH: EVQLLESGGGLVQPGGSLRLSCAVSGIDLSNYAINWVRQAPGKGLEWIGIIWASGTTFYATWAKGRFTISRDNSKNTVYLQMNSLRAEDTAVYYCARTVPGYSTAPYFDLWGQGTLVTVSS
VL: DIQMTQSPSSVSASVGDRVTITCQSSPSVWSNFLSWYQQKPGKAPKLLIYEASKLTSGVPSRFSGSGSGTDFTLTISSLQPEDFATYYCGGGYSSISDTTFGGGTKVEIKR
- binding [1]: binds
- binding [2]: binds
